US20260152559A1 (Janssen / Centocor, published 2026)
These are yes or no findings as the source states them, for the method shown. Some entries that bind do so weakly or less than the wild type.

Protein sequences, listed by entry. Tags and fused reporters are not part of them. Lines headed by an entry give the natural chain unless they say otherwise; changes in a name come on top.
UniProt P07766: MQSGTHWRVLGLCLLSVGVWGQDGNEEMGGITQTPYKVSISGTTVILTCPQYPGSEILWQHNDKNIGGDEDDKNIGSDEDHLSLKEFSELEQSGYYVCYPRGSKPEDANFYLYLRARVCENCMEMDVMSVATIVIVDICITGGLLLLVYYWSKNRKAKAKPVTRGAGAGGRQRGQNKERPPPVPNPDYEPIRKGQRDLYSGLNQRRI

B1: clone 065_D03 (hybridoma supernatant) (antibody, V domains shown)
VH: EVQLVESGGGLVKPGGSLRLSCAASGFTFSRYNMNWVRQAPGKGLEWVSSISTSSNYIYYADSVKGRFTFSRDNAKNSLDLQMSGLRAEDTAIYYCTRGWGPFDYWGQGTLVTVSS
VL: DILLTQSPGILSVSPGERVSFSCRARQSIGTAIHWYQQRTNGSPRLLIKYASESISGIPSRFSGSGSGTDFTLTINSVESEDIADYYCQQSNSWPYTFGGGTKLEIK
B2: CD3B815 (antibody, human IgG1, kappa, V domains shown)
VH: EVQLVESGGGLVKPGGSLRLSCAASGFTFSRYNMNWVRQAPGKGLEWVSSISTSSNYIYYADSVKGRFTFSRDNAKNSLDLQMSGLRAEDTAIYYCTRGWGPFDYWGQGTLVTVSS
VL: DILLTQSPGILSVSPGERVSFSCRARQSIGTAIHWYQQRTNGSPRLLIKYASESISGIPSRFSGSGSGTDFTLTINSVESEDIADYYCQQSNSWPYTFGGGTKLEIKR
B3: CD3W234-HL-E.c. (scFv)
scFv: EVQLVESGGGLVKPGGSLRLSCAASGFTFSRYNMNWVRQAPGKGLEWVSSISTSSNYIYYADSVKGRFTFSRDNAKNSLDLQMSGLRAEDTAIYYCTRGWGPFDYWGQGTLVTVSSGTEGKSSGSGSESKSTDILLTQSPGILSVSPGERVSFSCRARQSIGTAIHWYQQRTNGSPRLLIKYASESISGIPSRFSGSGSGTDFTLTINSVESEDIADYYCQQSNSWPYTFGGGTKLEIKGPGGQHHHHHHGAYPYDVPDYAS
B4: CD3W238-HL-E.c. (scFv)
scFv: EVQLVESGGGLVKPGGSLRLSCAASGFTFSRYNMNWVRQAPGKGLEWVSSISTSSNYIYYADSVKGRFTFSRDNAKNSLDLQMSGLRAEDTAIYYCTRGWGPFDYWGQGTLVTVSSGTEGKSSGSGSESKSTDIQMTQSPSSLSASVGDRVTITCRARQSIGTAIHWYQQKPGKAPKLLIYYASESISGVPSRFSGSGSGTDFTLTISSLQPEDFATYYCQQSNSWPYTFGQGTKLEIKGPGGQHHHHHHGAYPYDVPDYAS
B5: CD3W242-HL-E.c. (scFv)
scFv: EVQLVESGGGLVKPGGSLRLSCAASGFTFSRYNMNWVRQAPGKGLEWVSSISTSSNYIYYADSVKGRFTFSRDNAKNSLDLQMSGLRAEDTAIYYCTRGWGPFDYWGQGTLVTVSSGTEGKSSGSGSESKSTDIQMTQSPSSLSASVGDRVTITCRARQSIGTAIHWYQQKPGKAPKLLIKYASESISGVPSRFSGSGSGTDFTLTISSLQPEDFATYYCQQSNSWPYTFGQGTKLEIKGPGGQHHHHHHGAYPYDVPDYAS
B6: CD3W243-HL-E.c. (scFv)
scFv: EVQLVESGGGLVKPGGSLRLSCAASGFTFSRYNMNWVRQAPGKGLEWVSSISTSSNYIYYADSVKGRFTFSRDNAKNSLDLQMSGLRAEDTAIYYCTRGWGPFDYWGQGTLVTVSSGTEGKSSGSGSESKSTDIQMTQSPSSLSASVGDRVTITCRARQSIGTAIHWYQQKPGKAPKLLIKYASESISGVPSRFSGSGSGTDFTLTISSVQPEDFATYYCQQSNSWPYTFGQGTKLEIKGPGGQHHHHHHGAYPYDVPDYAS
B7: CD3W244-HL-E.c. (scFv)
scFv: EVQLVESGGGLVKPGGSLRLSCAASGFTFSRYNMNWVRQAPGKGLEWVSSISTSSNYIYYADSVKGRFTFSRDNAKNSLDLQMSGLRAEDTAIYYCTRGWGPFDYWGQGTLVTVSSGTEGKSSGSGSESKSTDIQMTQSPSSLSASVGDRVTITCRARQSIGTAIHWYQQKPGKAPKLLIYYASESISGVPSRFSGSGSGTDFTLTISSVQPEDFATYYCQQSGSWPYTFGQGTKLEIKGPGGQHHHHHHGAYPYDVPDYAS
B8: CD3W245-HL-E.c. (scFv)
scFv: EVQLVESGGGLVKPGGSLRLSCAASGFTFSRYNMNWVRQAPGKGLEWVSSISTSSNYIYYADSVKGRFTFSRDNAKNSLDLQMSGLRAEDTAIYYCTRGWGPFDYWGQGTLVTVSSGTEGKSSGSGSESKSTDIQMTQSPSSLSASVGDRVTITCRARQSIGTAIHWYQQKPGKAPKLLIKYASESISGVPSRFSGSGSGTDFTLTISSLQPEDFATYYCQQSGSWPYTFGQGTKLEIKGPGGQHHHHHHGAYPYDVPDYAS
B9: CD3W246-HL-E.c. (scFv)
scFv: EVQLVESGGGLVKPGGSLRLSCAASGFTFSRYNMNWVRQAPGKGLEWVSSISTSSNYIYYADSVKGRFTFSRDNAKNSLDLQMSGLRAEDTAIYYCTRGWGPFDYWGQGTLVTVSSGTEGKSSGSGSESKSTDIQMTQSPSSLSASVGDRVTITCRARQSIGTAIHWYQQKPGKAPKLLIKYASESISGVPSRFSGSGSGTDFTLTISSVQPEDFATYYCQQSGSWPYTFGQGTKLEIKGPGGQHHHHHHGAYPYDVPDYAS
B10: CD3W247-HL-E.c. (scFv)
scFv: EVQLVESGGGLVKPGGSLRLSCAASGFTFSRYNMNWVRQAPGKGLEWVSSISTSSNYIYYADSVKGRFTFSRDNAKNSLDLQMSGLRAEDTAIYYCTRGWGPFDYWGQGTLVTVSSGTEGKSSGSGSESKSTDIQMTQSPSSLSASVGDRVTITCRARQSIGTAIHWYQQKPGKAPKLLIYYASESISGVPSRFSGSGSGTDFTLTISSLQPEDFATYYCQQSGSWPYTFGQGTKLEIKGPGGQHHHHHHGAYPYDVPDYAS
B11: CD3W248-HL-E.c. (scFv)
scFv: EVQLVESGGGLVKPGGSLRLSCAASGFTFSRYNMNWVRQAPGKGLEWVSSISTSSNYIYYADSVKGRFTFSRDNAKNSLDLQMSGLRAEDTAIYYCTRGWGPFDYWGQGTLVTVSSGTEGKSSGSGSESKSTDILLTQSPGILSVSPGERVSFSCRARQSIGTAIHWYQQRTNGSPRLLIKYASESISGIPSRFSGSGSGTDFTLTINSVESEDIADYYCQQSGSWPYTFGGGTKLEIKGPGGQHHHHHHGAYPYDVPDYAS

Key:
[1] = target: human CD3 on cells (Jurkat cells, primary human T cells) (human) (UniProt P07766); experiment: flow cytometry, hybridoma supernatant on Jurkat cells
[2] = target: human CD3 on cells (Jurkat cells, primary human T cells) (human) (UniProt P07766); experiment: flow cytometry, hybridoma supernatant on primary human T cells, anti-mouse IgG Alexa-647
[3] = target: human CD3 on cells (Jurkat cells, primary human T cells) (human) (UniProt P07766); experiment: flow cytometry, hybridoma supernatant on primary pan T cells, anti-mouse IgG Alexa-647 detection
[4] = target: human CD3 on cells (Jurkat cells, primary human T cells) (human) (UniProt P07766); experiment: binding screen on Jurkat cells
[5] = target: human CD3 on cells (Jurkat cells, primary human T cells) (human) (UniProt P07766); experiment: flow cytometry; E. coli scFv supernatant on human T cells

Binder | binding [5] | further results
B1 |  | binding [1]: binds; binding [2]: binds; binding [3]: binds
B2 |  | binding [4]: binds
B3 | binds | 
B4 | binds | 
B5 | binds | 
B6 | binds | 
B7 | binds | 
B8 | binds | 
B9 | binds | 
B10 | binds | 
B11 | binds | 
